Reference: PMC11381335, “Unraveling the structure and function of a novel SegC protein interacting with the SegAB chromosome segregation complex in Archaea” (Nucleic Acids Research, 2024)
Construct, isoform or probe ends are uncertain for at least one entry. Where a protein sequence is shown, tags need not be part of it.

Biological target: T1, SegC (UniProt Q981B4)
T1 sequence (looked up): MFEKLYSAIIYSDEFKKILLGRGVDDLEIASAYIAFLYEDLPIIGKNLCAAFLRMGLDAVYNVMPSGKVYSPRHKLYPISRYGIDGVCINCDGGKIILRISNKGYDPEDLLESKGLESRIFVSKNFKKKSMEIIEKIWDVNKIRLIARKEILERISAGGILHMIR
Experiment: fluorescence polarization
Details: printed as ~10^-6 uM, evidently 10^-6 M, collective value for Figure 1A and B; FP: 20 mM Tris-HCl pH 7.5, 100 mM NaCl, 2 mM MgCl2, 5 nM Cy3-DNA, room temperature; recombinant protein; residues 1-165; protein details: C-terminal His6; label: 5' Cy3

With “AGGGTGTTCCACGTGAAACAGGGA (double strand) [24-bp non-specific DNA (nsDNA; Figure 1 legend says 23-bp)]” the Kd was 1000 nM.
